Here are results for 96 molecules from PubChem BioAssay AID463205 (Broad Institute, 2010).

The campaign covered roughly 2,400 compounds. About 20 (0.8%) were called active.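 The calls were made as follows: active = AC50 no more than ten times the highest tested concentration, or full inhibition at every dose giving a flat fit (cut at about 30 µM in these data); inconclusive = flat fit with activity between 30% and 70%, or poor-quality invalid fit; inactive = AC50 more than ten times the top tested dose.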 This is one part of the list.

The nature of the test: inhibitors of ADP-Glo detection reagents, dose response, artefact control for GSK-3a inhibitor project, biochemical, luminescence, cell-free, homogeneous (AID 463205).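 Also: kinase-free counter-screen against the ADP-Glo detection reagents only; potency is for inhibitors that reduce the luminescence signal.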 The following applies: 5 uM ADP. On the technique in general: In ADP-Glo the light output rises with the ADP produced.
With `CC(C)CNc1cc(N2CCCC2)ccc1[N+](=O)[O-]`, the AC50 (as a rule, the concentration giving half of the maximal activity seen) was inactive: > 30 µM.
The same measure for `O=C(Nc1nc2c(s1)CCCC2)c1ccc(Br)s1`: inactive: > 30 µM; for `O=C(CN1CCOCC1)Nc1cccc(Br)c1`: inactive: > 30 µM.
As for `CC(=O)O[C@@H]1[C@@H](O)[C@@H](O)[C@H](Oc2c(-c3ccc(O)cc3)oc3c(CC=C(C)C)c(O)cc(O)c3c2=O)O[C@H]1C`, the AC50 was inactive: > 30 µM.
Regarding `O=C(NCC1CCN(Cc2ccccc2Cl)CC1)Nc1cccc(Cl)c1`, the AC50 is inactive: > 30 µM.
The same measure for `Cc1ccc(S(=O)(=O)N2CCN(C(=O)n3ccnc3)CC2)cc1`: inactive: > 30 µM; for `CC(C)c1c(C(=O)N/N=C/c2ccsc2)nnn1-c1nonc1N`: inactive: > 30 µM.
The same measure for `CCN1C(=O)/C(=C/c2cccs2)N(C)C1=S`: inactive: > 30 µM; for `Cc1c(CN(C)C)c2c(n1Cc1ccccc1)C(=O)c1ccccc1-2`: inactive: > 30 µM; for `COc1ccc(/C=C(\C#N)C(=O)N=CN(C)C)cc1`: inactive: > 30 µM.
In the case of `COc1ccc(SCCN2CC[C@@H](C(C)(C)C)CCC2=O)cc1`, the AC50 was inactive: > 30 µM.
The same measure for `CCOCC(=O)Nc1nc2ccc(OCC)cc2s1`: inactive: > 30 µM; for `O=c1cc(-c2ccc(O)c(O)c2)oc2c1ccc1ccccc12`: inactive: > 30 µM.
The same measure for `CCOc1cc(/C=N/Nc2ncc(C)c(=O)[nH]2)ccc1O`: inactive: > 30 µM.
In the case of `COc1cccc2cc(C(=O)NCc3ccco3)c(=O)oc12` it was inactive: > 30 µM.
For the molecule `O=C(Nc1ccccc1C(=O)N1CCOCC1)c1cccnc1`, the AC50 is inactive: > 30 µM.
On to `CC1(C)CC(=O)C2=C(C1)Nc1ccccc1[S@]2=O`, for which the AC50 is inactive: > 30 µM.
The same measure for `CCOc1cc(/C=N/NC(=O)N/N=C/c2ccc(O)c(OCC)c2)ccc1O`: inactive: > 30 µM; for `CCCCC(=O)Nc1sc2c(c1C(N)=O)CCC2`: inactive: > 30 µM.
In the case of `CCCCCCCNc1nc(Cl)nc(NCCO)n1` it was inactive: > 30 µM; in that of `Cc1ccc(C(=O)c2cc(C)sc2NC(=O)CN2CCN(C(=O)c3ccco3)CC2)cc1`, inactive: > 30 µM.
With `C/C(=N\NC(=O)c1nnn(-c2nonc2N)c1-c1cccs1)c1cccc(O)c1`, the AC50 is inactive: > 30 µM.
In the case of `O=C1NC(=O)/C(=C\c2ccc(OCc3cccc(C(=O)O)c3)c(Cl)c2)N1`, the AC50 was inactive: > 30 µM.
In the case of `COC(=O)c1c(NC(=O)CN2C(=O)NC3(CCC(C(C)(C)C)CC3)C2=O)sc2c1CCCCC2` (stereo unspecified) it was inactive: > 30 µM.
The same measure for `COc1ccc(NC2CC(=O)NC2=O)cc1` (stereo unspecified): inactive: > 30 µM; for `COc1ccc(-n2c(O)c(C=NC3CC3)c(=O)[nH]c2=O)cc1`: inactive: > 30 µM.
The same measure for `N/C(=N\OC(=O)c1ccc(Br)cc1)c1cccc([N+](=O)[O-])c1`: inactive: > 30 µM; for `COc1ccc(CC(=S)N2CCOCC2)cc1OC`: inactive: > 30 µM.
Take `O=C(Nc1cccnc1)c1scc2c1OCCO2`: the AC50 was inactive: > 30 µM.
The same measure for `Cn1c(=O)c2c([nH]c(=O)n2C)n(Cc2ccccc2)c1=O`: inactive: > 30 µM.
For `Cc1ccc(N(C)C(=O)C2CCCN2S(=O)(=O)c2cccc3nsnc23)cc1` (stereo unspecified), the AC50 was inactive: > 30 µM.
`CC(C)NC(=O)NC(=O)CSc1nncn1C`: the AC50 was inactive: > 30 µM.
In the case of `CCNC(=S)NNC(=O)Cc1ccccc1` it was inactive: > 30 µM; in that of `COC(=O)c1c(NC(=O)CN2C(=O)NC3(CCCCC3C)C2=O)sc2c1CCC2` (stereo unspecified), inactive: > 30 µM.
The same measure for `COc1ccc(OC)c(/C=C2\Oc3cc(OCC(=O)N4CCC[C@H]4C(=O)O)ccc3C2=O)c1`: inactive: > 30 µM; for `O=C(O)c1cccc2c1C(=O)c1ccc(Cl)cc1S2(=O)=O`: inactive: > 30 µM; for `O=C(NCCc1csc(-c2ccccc2)n1)c1ccc(Br)o1`: inactive: > 30 µM.
For `O=c1ccc(-c2nc3ccccc3n2Cc2ccc(Cl)cc2)c[nH]1`, the AC50 was inactive: > 30 µM.
The same measure for `COc1ccc(-n2c(C)nc(N)c2C(=O)c2ccccc2)cc1`: inactive: > 30 µM; for `Cc1ccc(-n2cnc(N)c2C(=O)c2cccc([N+](=O)[O-])c2)cc1`: inactive: > 30 µM; for `O=Cc1cn(-c2ccccc2)nc1-c1ccc2c(c1)OCCO2`: inactive: > 30 µM.
The same measure for `CCCn1c2ccccc2c2nc3ccccc3nc21`: inactive: > 30 µM.
In the case of `O=c1c(O[C@@H]2O[C@H](CO)C(O)C2O)c(-c2ccc(O)c(O)c2)oc2cc(O)cc(O)c12` (stereo partly specified) it was inactive: > 30 µM; in that of `CC1CCCC(C)N1C(=O)COC(=O)c1c[nH]c2ccccc12` (stereo unspecified), inactive: > 30 µM.
For the molecule `Cc1ccc(Cc2c(C)nc3nc(SCC(=O)NCCCN4CCCCCC4)nn3c2C)cc1`, the AC50 is inactive: > 30 µM.
In the case of `OCCCNc1ncnc2scc(-c3ccc(Cl)cc3)c12` it was inactive: > 30 µM; in that of `CC(C)Cn1nc(NC(=O)C2CCCO2)c2cc3ccccc3nc21` (stereo unspecified), inactive: > 30 µM; in that of `Cc1ccc2nc3c(cc2c1)c(NS(=O)(=O)c1ccccc1)nn3CC(C)C`, inactive: > 30 µM.
For `O=C(N/N=C/c1cccnc1)c1cccc(S(=O)(=O)N2CCCC2)c1`, the AC50 is inactive: > 30 µM.
In the case of `COc1c(-c2ccccc2)oc2c(ccc3occc32)c1=O` it was inactive: > 30 µM; in that of `NC(=NCCCCCCN=C(N)/N=C(\N)Nc1ccc(Cl)cc1)/N=C(\N)Nc1ccc(Cl)cc1`, inactive: > 30 µM; in that of `C/C(=N\O)C(=O)NCCCn1ccnc1`, inactive: > 30 µM.
In the case of `O=c1cc(-c2ccncc2)oc2c1ccc1ccccc12` it was inactive: > 30 µM.
For `COC(=O)c1oc2ccc(Cl)cc2c1N`, the AC50 was inactive: > 30 µM.
Turning to `COc1ccc(-c2cn3cccnc3n2)cc1NC(=O)C1CC1`, the AC50 was inactive: > 30 µM.
Turning to `CCOc1ccc2ncc(S(=O)(=O)c3ccccc3)c(N3CCN(c4ccccc4)CC3)c2c1`, the AC50 is inactive: > 30 µM.
The same measure for `Cc1cccc(C(=O)Nc2cccc(-c3cnc4ccccc4n3)c2)c1`: inactive: > 30 µM.
As for `Fc1ccc(Nc2ccnc(Nc3ccc(F)cc3)n2)cc1`, the AC50 was inactive: > 30 µM.
The same measure for `CC1(C)Cc2c(sc3ncn(N)c(=N)c23)CO1`: inactive: > 30 µM.
With `CCCc1c(C(=O)N/N=C/c2cccnc2)nnn1-c1nonc1N`, the AC50 is inactive: > 30 µM.
On to `O=C(CSCCc1ccccn1)Nc1ccccn1`, for which the AC50 was inactive: > 30 µM.
Turning to `Cc1ccc(/C=N/NC(=O)c2nnn(-c3nonc3N)c2CN(C)C2CCCCC2)cc1`, the AC50 was inactive: > 30 µM.
Take `COc1cccc(N(CC(=O)Nc2cccc(C(C)=O)c2)S(C)(=O)=O)c1`: the AC50 was inactive: > 30 µM.
On to `COc1ccccc1N1C(=O)C2C(c3ccccc3F)NN(C(=O)c3ccc(C)cc3)C2C1=O` (stereo unspecified), for which the AC50 was inactive: > 30 µM.
As to `O=C(O)c1cn(-c2ccccc2)nc1-c1cccnc1`, the AC50 is inactive: > 30 µM.
In the case of `CCOc1ccc2nc(NC(=O)CSC3=NCCS3)sc2c1` it was inactive: > 30 µM; in that of `CCCC(=O)Nc1cc(-c2cn3cccnc3n2)ccc1OC`, inactive: > 30 µM; in that of `COc1cc(/C=N/NC(=O)c2cccnc2)cc(Br)c1O`, inactive: > 30 µM.
The same measure for `COC(=O)c1sccc1NC(=O)c1ccccc1`: inactive: > 30 µM; for `Cc1nc(N2CCC(C(N)=O)CC2)c2c(-c3cccs3)csc2n1`: inactive: > 30 µM; for `COc1ccc2nc(NC(=O)CN3CCN(C)CC3)sc2c1`: inactive: > 30 µM.
As for `CC(C)NC(=O)Nc1ccc(Br)cc1Cl`, the AC50 was inactive: > 30 µM.
With `CCOC(=O)c1nc(NCc2ccccc2C)c2ccccc2n1`, the AC50 is inactive: > 30 µM.
`Cc1ccc(NC(=S)Nc2ccc3cn[nH]c3c2)c(C)c1`: the AC50 was inactive: > 30 µM.
The same measure for `Cc1cc(C)cc(NC(=O)CSCc2nc3c(nnn3Cc3ccc(F)cc3)c(=O)[nH]2)c1`: inactive: > 30 µM; for `O=C(CSc1cccc2cccnc12)N/N=C/c1ccc(O)cc1`: inactive: > 30 µM.
Consider `O=C(CSc1ccccn1)Nc1ccccc1F`, for which the AC50 is inactive: > 30 µM.
The same measure for `CCOc1cccc(-c2c(C(=O)N/N=C(\C)c3ccncc3)nnn2-c2nonc2N)c1`: inactive: > 30 µM; for `Cc1sc2ncnc(NCCN3CCOCC3)c2c1C`: inactive: > 30 µM.
In the case of `CCC(CO)Nc1ncc([N+](=O)[O-])cc1C#N` (stereo unspecified) it was inactive: > 30 µM; in that of `COc1ccc2nc(NC(=O)CSc3cn[nH]n3)sc2c1`, inactive: > 30 µM.
The same measure for `Cc1nnc(NC(=O)Oc2ccccc2)s1`: inactive: > 30 µM.
Turning to `O=C(O)CCCNc1ccc([N+](=O)[O-])c(NCCCC(=O)O)n1`, the AC50 is inactive: > 30 µM.
`c1cc2[nH]snc2c2nc(C3CC3)nc12`: the AC50 was inactive: > 30 µM.
`CCOc1cccc(-c2c(C(=O)N/N=C/c3sccc3C)nnn2-c2nonc2N)c1`: the AC50 was inactive: > 30 µM.
In the case of `Cc1ccc(C)c(/C=N/Nc2ccccn2)c1`, the AC50 is inactive: > 30 µM.
The same measure for `COC(=O)c1cn(C(=O)c2ccccc2F)nc1N`: inactive: > 30 µM.
The same measure for `CCNc1c(C(=O)O)ccc2c1C(=O)c1ccccc1C2=O`: inactive: > 30 µM; for `Cc1cc(N2CCN(c3ccccc3)CC2)n2cc(-c3ccccc3)nc2n1`: inactive: > 30 µM; for `O=C(CSCCO)Nc1ccc([N+](=O)[O-])cc1`: inactive: > 30 µM.
In the case of `Nc1c(C(=O)Nc2ccc3c(c2)OCCO3)nnn1Cc1ccccc1Cl` it was inactive: > 30 µM; in that of `CCOC(=O)c1cc(C)sc1NC(=O)CCC(=O)O`, inactive: > 30 µM; in that of `CCOC(=O)c1c(NC(=O)Cc2cccs2)sc2c1CCCC2`, inactive: > 30 µM.
Consider `CCCCOC(=O)C1=C(C)Nc2ncnn2C1c1ccc(OC)c(OC)c1OC` (stereo unspecified), for which the AC50 was inactive: > 30 µM.
In the case of `Cc1nc(NCCc2ccccc2)c(C#N)c(C)c1[N+](=O)[O-]`, the AC50 is inactive: > 30 µM.
With `C/C(=N\NC(=O)c1nnn(-c2nonc2N)c1-c1cccs1)c1ccc(C)cc1`, the AC50 is inactive: > 30 µM.
